PubChem BioAssay AID652272, Drosophila RNAi Screening Center – 2013
The screen tested about 21,000 reagents; shown is an unselected part of those with a known target gene and a result. Over the whole deposit, 503 (2.4%) were called active. 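Raw plate light values, not normalised; calls rest on replicate z-scores that were not deposited; hits include reporter decreases as well as increases.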 Entries without a mark were called inactive. Reagents against one gene are numbered here. A plus sign joins genes that one reagent is predicted to hit. Not stated in the record: the amount of reagent, the time to read-out.

- Aim: 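Genes whose knock-down decreases or increases Hedgehog reporter output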 (primary screen)
- Cells: Drosophila clone 8 (Cl8) cells
- Knock-down reagent: long dsRNA against Drosophila genes
- Measured: 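Firefly light from a Hedgehog-responsive ptc promoter reporter and Renilla reference light, both read on a plate reader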
- Reading the numbers: firefly Hh reporter signal: higher = more ptc reporter light; Renilla reference signal: higher = more Renilla control light
- Rule for the call: 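Hit when the z-score averaged over two replicates is under -2 or over +3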
- Calls: active = hit: reporter lowered or raised; inactive = not a hit

target gene | reagent no. | firefly Hh reporter signal, replicate 1 | firefly Hh reporter signal, replicate 2 | firefly Hh reporter signal, replicate 3 | Renilla reference signal, replicate 1 | Renilla reference signal, replicate 2
CG33093 | 1 | 4.60e5 | 89584 | – | 3872 | 3872
CG18258 | 1 | 63920 | 1.62e5 | – | 1815 | 9061
CG32507 | 1 | 7.25e5 | 5.20e5 | 2.77e5 | 38646 | 2762
Ir94h (Ionotropic receptor 94h) | 1 | 4.90e5 | 84310 | – | 27379 | 2258
Tcs5 (Threonyl-carbamoyl synthesis 5) | 1 | 45572 | 43737 | – | 5744 | 3904
CG6511 | 1 | 36659 | 38167 | – | 3568 | 3033
hmw (hemingway) | 1 | 1.11e5 | 1.10e5 | – | 4333 | 4081
CG7970 | 1 | 1.46e5 | 89801 | – | 5411 | 3177
CG33453 | 1 | 96022 | 2.30e5 | – | 2653 | 8742
CG10005 | 1 | 1.07e5 | 90267 | – | 4066 | 1980
r-cup (ryder cup) | 1 | 90696 | 1.26e5 | – | 3649 | 5856
Parp1 (Poly-(ADP-ribose) polymerase 1) | 1 | 1.18e5 | 2.87e5 | – | 3005 | 10522
Parp1 (Poly-(ADP-ribose) polymerase 1) | 2 | 79595 | 46677 | – | 3097 | 3876
Parp1 (Poly-(ADP-ribose) polymerase 1) | 3 | 55373 | 50384 | – | 2067 | 4220
Vps36 (Vacuolar protein sorting 36) | 1 | 30017 | 42967 | 34336 | 5752 | 3248
CG11151 | 1 | 95001 | 2.34e5 | – | 3653 | 12458
PGRP-LE (Peptidoglycan recognition protein LE) | 1 | 1.10e5 | 1.02e5 | – | 2573 | 2508
CG8834 | 1 | 1.02e5 | 76583 | – | 2208 | 4900
CG8272 | 1 | 90722 | 73668 | – | 3530 | 3014
Miro (Mitochondrial Rho) | 1 | 1.12e5 | 97507 | – | 4258 | 3690
Cog6 (Component of oligomeric golgi complex 6) | 1 | 79257 | 51061 | – | 3168 | 2018
Ppn (Papilin) | 1 | 1.10e5 | 1.40e5 | – | 2850 | 4859
CG4537 | 1 | 1.17e5 | 72036 | – | 2801 | 7072
beta-Spec (beta Spectrin) | 1 | 76842 | 2.54e5 | – | 3075 | 9100
ed (echinoid) | 1 | 69809 | 86555 | – | 2821 | 3563
ed (echinoid) | 2 | 1.04e5 | 61609 | – | 3306 | 5333
ed (echinoid) | 3 | 1.50e5 | 71508 | – | 4273 | 6784
ed (echinoid) | 4 | 1.49e5 | 64962 | – | 3978 | 6186
schlank | 1 | 70725 | 1.83e5 | – | 2240 | 7356
schlank | 2 | 68969 | 2.49e5 | – | 2833 | 9248

Ordered by “Renilla reference signal, replicate 2” (lowest first): some entries from above.
target gene | reagent no. | firefly Hh reporter signal, replicate 1 | firefly Hh reporter signal, replicate 2 | firefly Hh reporter signal, replicate 3 | Renilla reference signal, replicate 1 | Renilla reference signal, replicate 2
Cog6 (Component of oligomeric golgi complex 6) | 1 | 79257 | 51061 | – | 3168 | 2018
ed (echinoid) | 1 | 69809 | 86555 | – | 2821 | 3563
Miro (Mitochondrial Rho) | 1 | 1.12e5 | 97507 | – | 4258 | 3690
Ppn (Papilin) | 1 | 1.10e5 | 1.40e5 | – | 2850 | 4859
ed (echinoid) | 2 | 1.04e5 | 61609 | – | 3306 | 5333
CG4537 | 1 | 1.17e5 | 72036 | – | 2801 | 7072
beta-Spec (beta Spectrin) | 1 | 76842 | 2.54e5 | – | 3075 | 9100

Next results follow.
target gene | reagent no. | firefly Hh reporter signal, replicate 1 | firefly Hh reporter signal, replicate 2 | firefly Hh reporter signal, replicate 3 | Renilla reference signal, replicate 1 | Renilla reference signal, replicate 2
Efa6 (Exchange factor for Arf 6) | 1 | 50312 | 1.72e5 | – | 10864 | 3506
Efa6 (Exchange factor for Arf 6) | 2 | 3.85e5 | 49024 | – | 19105 | 1331
Efa6 (Exchange factor for Arf 6) | 3 | 3.27e5 | 49200 | – | 19299 | 1914
CHOp24 | 1 | 98218 | 1.13e5 | – | 1373 | 3431
gammaCOP (Coat Protein (coatomer) gamma) | 1 | 1.16e5 (active) | 36528 | – | 7332 | 2160
pncr004:X (retired record) | 1 | 5.35e5 | 3.32e5 | – | 33259 | 7964
CG14957 | 1 | 97594 | 42090 | – | 2663 | 360
CG18661 | 1 | 73863 | 58968 | – | 2068 | 4669
Kif19A (Kinesin family member 19A) | 1 | 4.09e5 | 67584 | – | 2609 | 2609
r + CG13012 | 1 | 76653 | 1.74e5 | – | 2245 | 7284
VhaM9.7-a (Vacuolar H[+] ATPase M9.7 subunit a) | 1 | 1.35e5 | 44683 | – | 3608 | 738
CG14260 | 1 | 72634 | 1.20e5 | – | 2768 | 3908
e(y)2b (enhancer of yellow 2b) | 1 | 1.26e5 | 1.28e5 | – | 4963 | 3682
ttm50 (tiny tim 50) | 1 | 1.03e5 | 98169 | – | 2315 | 2997
Eps-15 (Epidermal growth factor receptor pathway substrate clone 15) | 1 | 1.16e5 | 71457 | – | 4676 | 1984
chn (charlatan) | 1 | 1.87e5 | 83766 | – | 6022 | 753
mRpL24 (mitochondrial ribosomal protein L24) | 1 | 1.38e5 | 61639 | – | 4813 | 2624
CG15047 | 1 | 1.63e5 | 8.34e5 | 3.65e5 | 3584 | 7531
Leash | 1 | 61138 | 1.10e5 | – | 1712 | 2880
CG13949 | 1 | 1.65e5 | 1.10e5 | – | 3974 | 2353
CG11007 | 1 | 92699 | 54512 | – | 4164 | 2587
Ugt303A1 (UDP-glycosyltransferase family 303 member A1) | 1 | 70146 | 83112 | – | 2162 | 2038
a5 (antennal protein 5) | 1 | 82949 | 76010 | – | 2167 | 1944
Hmgcl (3-Hydroxymethyl-3-methylglutaryl-CoA lyase) | 1 | 97686 | 61440 | – | 2459 | 5450
eya (eyes absent) | 1 | 1.10e5 | 80176 | – | 4152 | 2353
CG3739 | 1 | 5.58e5 | 77698 | – | 28288 | 1882
RpS3 (Ribosomal protein S3) | 1 | 2.66e5 (active) | 36061 | – | 19669 | 2048
Moe (Moesin) | 1 | 84466 | 53818 | – | 2268 | 1633
CG11294 | 1 | 57686 | 1.30e5 | – | 2004 | 5714
CG8838 | 1 | 93810 | 60857 | – | 4193 | 2549
CG32642 | 1 | 5.05e5 | 1.81e5 | – | 29936 | 4306
Hmgs (HMG Coenzyme A synthase) | 1 | 73253 | 56256 | – | 2005 | 4192
Scgalpha (Sarcoglycan alpha) | 1 | 1.09e5 | 54172 | – | 2888 | 5171
CG33757 | 1 | 1.05e5 | 2.48e5 | – | 2560 | 9430
Jhbp15 (Juvenile hormone binding protein 15) | 1 | 7.01e5 | 93449 | – | 34768 | 2697
CG4942 | 1 | 1.00e5 | 83556 | – | 4301 | 3553
CG18324 | 1 | 93820 | 55240 | – | 3877 | 2080
P5CS (Delta[1]-pyrroline-5-carboxylate synthase) | 1 | 1.16e5 | 1.01e5 | – | 5149 | 3936
P5CS (Delta[1]-pyrroline-5-carboxylate synthase) | 2 | 96244 | 92793 | – | 3402 | 2794
CG17746 | 1 | 62432 | 61520 | – | 2925 | 2618
CG42502 + CG10570 | 1 | 1.08e5 | 63508 | – | 4426 | 2710
Osbp (Oxysterol binding protein) | 1 | 89729 | 86036 | – | 3696 | 3304
Ugt35E2 (UDP-glycosyltransferase family 35 member E2) | 1 | 43493 | 1.15e5 | – | 1660 | 3285
